{"source": "patent US10369187B2", "about": "(Vanderbilt University, priority 2017, dated 2019)", "assay": "general procedure: peptide synthesis; NovaSyn TGR R resin", "details": "whole synthesis, analytical reversed-phase HPLC and MALDI-TOF mass spectrometry, scale 13.5 μmol", "note": "Plain letter strings leave the end groups untold."}
{"sequence": "MGEKPGTRVFKKSSPNCKLTVYLGK (bovine)", "values": [{"measurement": "purity (crude or final not stated)", "result": "≥95", "unit": "%"}]}
